Some results were stated once for a whole list of compounds, not compound by compound.
Legend:
Assay type in all cases: in vivo
[1] = system: Plutella xylostella; test: Insecticidal test on Plutella xylostella (dip of Chinese cabbage seedlings with laid eggs); conditions: 500 ppm, seedlings with laid eggs dipped about 30 seconds, 25° C., 6 days after the dip treatment, criteria of Test Example 2
[2] = system: Laodelphax striatellus; test: Insecticidal test on Laodelphax striatellus (rice seedling dip); conditions: 500 ppm, rice seedlings dipped 30 seconds, ten 3rd-instar larvae, 8 days after the inoculation
[3] = system: Green peach aphids (Myzus persicae); test: Test for control efficacy on Myzus persicae (foliar application, Chinese cabbage); conditions: 500 ppm, foliar application to potted Chinese cabbage plants, 6 days after the foliar application

| Compound | insecticidal efficacy (corrected mortality rate, hatched larvae), activity level [1] | insecticidal efficacy (corrected mortality rate), activity level [2] | control efficacy (control rate), activity level [3] |
| --- | --- | --- | --- |
| C#CCOC(=NOCC(F)(F)F)c1cnc(-c2nc3cc([S+]([O-])C(F)(F)F)ccc3o2)c(S(=O)(=O)CC)c1 (stereo not drawn) [Compound 3-285] | A (the corrected mortality rate is 100%) | A (the corrected mortality rate is 100%) | A (the control rate is 100%) |
| CCS(=O)(=O)c1cc(C(=NOCC(F)(F)F)OC)cnc1-c1nc2cc(OC(F)(F)F)ccc2o1 [Compound 3-146] | A (the corrected mortality rate is 100%) | A (the corrected mortality rate is 100%) | A (the control rate is 100%) |
| CCSC(=NOCC(F)(F)F)c1cnc(-c2nc3cc(SC(F)(F)F)ccc3o2)c(S(=O)(=O)CC)c1 [Compound 3-126] | A (the corrected mortality rate is 100%) | A (the corrected mortality rate is 100%) | A (the control rate is 100%) |
| CCCCOC(=NOCC(F)(F)F)c1cnc(-c2nc3cc([S+]([O-])C(F)(F)F)ccc3o2)c(S(=O)(=O)CC)c1 (stereo not drawn) [Compound 3-283] | A (the corrected mortality rate is 100%) | A (the corrected mortality rate is 100%) | A (the control rate is 100%) |
| CCS(=O)(=O)c1cc(C(=NOCC(F)(F)F)n2cncn2)cnc1-c1nc2cc(S(=O)(=O)C(F)(F)F)ccc2o1 [Compound 3-276] | A (the corrected mortality rate is 100%) | A (the corrected mortality rate is 100%) | A (the control rate is 100%) |
| CCS(=O)(=O)c1cc(C(=NOCC(F)(F)F)OC)cnc1-c1nc2cc(C(F)(F)F)cnc2n1C [Compound 1-6] | A (the corrected mortality rate is 100%) | A (the corrected mortality rate is 100%) | A (the control rate is 100%) |
| CCS(=O)(=O)c1cc(/C(=N/OCC(F)(F)F)NC(C)=O)cnc1-c1nc2cc(S(=O)(=O)C(F)(F)F)ccc2o1 [Compound 3-293] | A (the corrected mortality rate is 100%) | A (the corrected mortality rate is 100%) | A (the control rate is 100%) |
| CCS(=O)(=O)c1cc(C(=NOCC(F)F)n2cncn2)cnc1-c1nc2cc([S+]([O-])C(F)(F)F)ccc2o1 (stereo not drawn) [Compound 3-290] | A (the corrected mortality rate is 100%) | A (the corrected mortality rate is 100%) | A (the control rate is 100%) |
| CCS(=O)(=O)c1ccc(C(=NOCC(F)(F)F)OC)nc1-c1nc2cc(C(F)(F)F)cnc2n1C [Compound 2-6] | A (the corrected mortality rate is 100%) | A (the corrected mortality rate is 100%) | A (the control rate is 100%) |
| CCS(=O)(=O)c1cc(C(=NOCC(F)(F)F)OCCOC)cnc1-c1nc2cc(SC(F)(F)F)ccc2o1 [Compound 3-286] | A (the corrected mortality rate is 100%) | A (the corrected mortality rate is 100%) | A (the control rate is 100%) |
| CCS(=O)(=O)c1cc(/C(=N/OCC(F)(F)F)NC(=O)OC)cnc1-c1nc2cc([S+]([O-])C(F)(F)F)ccc2o1 (stereo not drawn) [Compound 3-292] | A (the corrected mortality rate is 100%) | A (the corrected mortality rate is 100%) | A (the control rate is 100%) |
| C#CCOC(=NOCC(F)(F)F)c1cnc(-c2nc3cc(S(=O)(=O)C(F)(F)F)ccc3o2)c(S(=O)(=O)CC)c1 [Compound 3-287] | A (the corrected mortality rate is 100%) | A (the corrected mortality rate is 100%) | A (the control rate is 100%) |
| CCS(=O)(=O)c1cc(/C(=N/OCC(F)(F)F)NC(C)=O)cnc1-c1nc2cc(C(F)(F)F)cnc2n1C [Compound 1-71] | A (the corrected mortality rate is 100%) | A (the corrected mortality rate is 100%) | A (the control rate is 100%) |
| CCS(=O)(=O)c1cc(C(=NOCC(F)(F)F)N(C)C(C)=O)cnc1-c1nc2cc(S(=O)(=O)C(F)(F)F)ccc2o1 [Compound 3-294] | A (the corrected mortality rate is 100%) | A (the corrected mortality rate is 100%) | A (the control rate is 100%) |
| CCS(=O)(=O)c1cc(C(=NOCC(F)(F)F)OC)cnc1-c1nc2cc(C(F)(F)F)ccc2o1 [Compound 3-6] | A (the corrected mortality rate is 100%) | A (the corrected mortality rate is 100%) | A (the control rate is 100%) |
| CCOC(=NOCC(F)(F)F)c1cnc(-c2nc3cc(SC(F)(F)F)ccc3o2)c(S(=O)(=O)CC)c1 [Compound 3-86] | A (the corrected mortality rate is 100%) | A (the corrected mortality rate is 100%) | A (the control rate is 100%) |
| CCS(=O)(=O)c1cc(C(=NOCSC)OC)cnc1-c1nc2cc(C(F)(F)F)cnc2n1C [Compound 1-10] | A (the corrected mortality rate is 100%) | A (the corrected mortality rate is 100%) | A (the control rate is 100%) |
| CCS(=O)(=O)c1cc(C(=NOCC(F)(F)F)OCC(C)C)cnc1-c1nc2cc([S+]([O-])C(F)(F)F)ccc2o1 (stereo not drawn) [Compound 3-284] | A (the corrected mortality rate is 100%) | A (the corrected mortality rate is 100%) | A (the control rate is 100%) |
| CCS(=O)(=O)c1cc(C(=NOCC(F)(F)F)OC)cnc1-c1nc2cc(S(=O)(=O)C(F)(F)F)ccc2o1 [Compound 3-216] | A (the corrected mortality rate is 100%) | A (the corrected mortality rate is 100%) | A (the control rate is 100%) |
| CCS(=O)(=O)c1cc(C(=NOCC(F)(F)F)n2cncn2)cnc1-c1nc2cc(C(F)(F)F)cnc2n1C [Compound 1-66] | A (the corrected mortality rate is 100%) | A (the corrected mortality rate is 100%) | A (the control rate is 100%) |
| CCS(=O)(=O)c1cc(C(=NOCC(F)F)n2cncn2)cnc1-c1nc2cc(S(=O)(=O)C(F)(F)F)ccc2o1 [Compound 3-275] | A (the corrected mortality rate is 100%) | A (the corrected mortality rate is 100%) | A (the control rate is 100%) |
| CCCON=C(c1cnc(-c2nc3cc(SC(F)(F)F)ccc3o2)c(S(=O)(=O)CC)c1)n1cncn1 [Compound 3-133] | A (the corrected mortality rate is 100%) | A (the corrected mortality rate is 100%) | A (the control rate is 100%) |
| CCS(=O)(=O)c1cc(C(=NOCC(F)(F)F)OC)cnc1-c1nc2cc([S+]([O-])C(F)(F)F)ccc2o1 (stereo not drawn) [Compound 3-281] | A (the corrected mortality rate is 100%) | A (the corrected mortality rate is 100%) | A (the control rate is 100%) |
